Experimental data as given in publication PMC8645233.
No constants are given. Whether binding was seen depends on the method and setting. Some binding calls cover weakened binding; strength is not graded here.

Molecular target: T1, GTBP-1 (C. elegans) (UniProt Q21351)
T1 sequence: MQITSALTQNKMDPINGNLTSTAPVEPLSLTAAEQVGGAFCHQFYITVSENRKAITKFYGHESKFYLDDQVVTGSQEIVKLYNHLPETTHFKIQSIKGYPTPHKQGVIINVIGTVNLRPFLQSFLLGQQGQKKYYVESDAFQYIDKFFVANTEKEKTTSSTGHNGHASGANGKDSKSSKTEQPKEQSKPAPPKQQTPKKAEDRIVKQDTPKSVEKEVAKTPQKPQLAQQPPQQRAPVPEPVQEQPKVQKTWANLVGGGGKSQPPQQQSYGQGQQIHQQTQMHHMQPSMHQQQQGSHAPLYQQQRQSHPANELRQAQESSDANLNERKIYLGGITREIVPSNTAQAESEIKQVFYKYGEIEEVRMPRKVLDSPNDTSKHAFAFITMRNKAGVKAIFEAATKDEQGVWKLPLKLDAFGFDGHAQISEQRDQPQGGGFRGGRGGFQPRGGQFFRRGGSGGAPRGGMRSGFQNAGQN
Assay: two-hybrid; PJ69-4a yeast strain; single copy GAL4 activation and GAL4 DNA-binding domain vectors; growth for 3 days on SC -Leu -Trp -His plates with 3 mM 3AT (HIS-3 reporter) and colony colour (ADE-2 reporter)

binding: binds
B1: Prion-like (glutamine/asparagine-rich) domain bearing protein (PQN-59) (protein, UniProt O61708 1-712)
chain: MGIKGDKKATSDQARLARLTLEGNSGNEEDIQFMIKTIIETTGCTQAQAEIALLDTDNNLYGAIDHILDAGDKLDSWTEQKGAKKEKKKPEEGSYNNRGFVARGRGGGTGFVDRGGRGRSNGAPRESRDNNRDNRDNKEGAAPRSTRGGFEKPYVGRGGRGGARGGYSRAVAPSSALEPDAFTADLDENQTKVDTTVTEVQPPVEESVTATVPTSSAPAPISFAAVAAAAHRKEALRKHQAQNPQPAAPPRRSLSPQPPLPSVAPVKEEPAAAPVFFEPETSHQPEKEDGFFQNESSVLAEEQTPNVSTHHDENVQSTPEPNQAWTTQLKTDLGIGLSEAPGLGLSPIPSAAPVQIIPDPGVEFVGTTAPTNIHDYSFGFVEAAPSPQLPSTESSAASISNASENIFNSSRIMPKQVEPERTSIPNGDYNLKSTSPPLSYGQSNRGLSYDTSSASYQPTDRMAPNKFNNSGPLPTQQSAQQHQPQQQQQQAPQQPVQQQQQTPPAQSQPTGHPQQHPHMMFTQQLPYAPYMNNYMNMYNPMPGVRDEQYTAALMQYGMGVDLTSLLPTAPLSQAASAQQVQSGQQRETHGLMDFNKFGSQSSRDQQPQQASNVGPPPGFQATNYMQQPNLSSLFMQQYSPAPHQFTPFMNMMPNVGSSAGGRQLYGQDDERKSYDKMSGSKPAAQQNQHSQYQHNGGNLGKYGMNKPYNWSN
